Measurements published in patent US5668289A, “Pyridinone thrombin inhibitors” (Merck & Co., Inc., priority 1996, dated 1997).
Some results were stated once for a whole list of compounds, not compound by compound.

Target: human trypsin
Assay: In vitro assay for proteinase inhibition, human trypsin
Format: biochemical
Settings: 25° C., 0.05M TRIS buffer pH 7.4, 0.15M NaCl, 0.1% PEG, 1 mM CaCl2

| Compound | Ki |
| --- | --- |
| Cc1ccc(NS(=O)(=O)Cc2ccccc2)c(=O)n1CC(=O)NCC1CCN(C(=N)N)CC1 [Example 1, 3-Benzylsulfonylamino-6-methyl-1-(4-methylenecarboxamidomethyl-1-amidinopiperidinyl)-2-pyridinone] | > 500 nM |
| Cc1ccc(NS(=O)(=O)Cc2ccccc2)c(=O)n1CC(=O)NC[C@H]1CC[C@H](N)CC1 [III, 3-Benzylsulfonylamino-6-methyl-1-(methylenecarboxamido-trans-4-aminocyclohexylmethyl)-2-pyridinone] | > 500 nM |
